Reference: PubChem BioAssay AID1347076 (National Center for Advancing Translational Sciences (NCATS), 2019)
Out of some 400,000 compounds screened, about 13,000 (3.2%) were called active. Inconclusive means that the source gave no clear call. Such entries were picked first, then a sample of the others. Calls come from the whole dose curve; as a rule, active = well fitted cell-killing curve with a large enough effect; inconclusive = small, poorly fitted or top-dose-only effect, or effect the other way; inactive = flat fitted curve, though single readings scatter. A potency beside an inconclusive call is a rough fit, not a confirmed value.

assay: qHTS assay for MDR1-selective chemotherapeutics: Primary screen using the drug-selected MDR subline cells KB-V1; conditions: KB-V1 MDR cells viability, CellTiter-Glo, 72 h; activity change, negative = cytotoxicity: at 46.1 µM (top of the series); note: nearly all actives have a fitted effect of over 60% in size
Summary of the method: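 Compound-treated KB-V1 multidrug-resistant cells, 72 h, 37 degrees C; viability by CellTiter-Glo. Fitted qHTS curves give the values.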
% is set by controls: 0 for no effect and ±100 for the full control effect; potency is the fitted concentration of half-maximal effect.

Row | Structure (SMILES) | Potency | activity change, negative = cytotoxicity
1 | CCOc1cc(/C=N/NC(=O)c2cccc([N+](=O)[O-])c2)ccc1OS(=O)(=O)c1ccccc1 | active: 13 µM | –
2 | COc1ccc(C2CC(c3ccc(F)cc3)=NN2c2ccccc2)cc1OC (centres undefined) | inconclusive: 16.4 µM [cytotoxic, single point] | –
3 | CCOc1ccc(CNC(=O)CCCN2C(=O)C(c3ccccc3)Oc3cccnc32)cc1 (centres undefined) | inconclusive: 29.1 µM [cytotoxic, single point] | –
4 | O=C(c1cccc(OC2CCN(Cc3ccc(F)cc3Cl)CC2)c1)N1CCCC1 | inconclusive: 25.9 µM [cytotoxic, partial curve, poor fit] | –
5 | COc1ccc(CN=C(N)N=C(N)N)cc1Cl | – | inactive: 2.83%
6 | Cc1ccc(SCC(=O)OCC(=O)N(CCC#N)c2ccccc2)cc1 | inconclusive: 20.6 µM [rising, single point] | –
7 | Cc1ccccc1Cn1c(CN2CCc3ccccc3C2)nc2c1c(=O)n(C)c(=O)n2C | active: 23.1 µM | –
8 | O=C(O)/C=C/c1ccc(S(=O)(=O)Nc2ccccc2C(=O)Nc2ccc(F)cc2)cc1 | inconclusive: 20.6 µM [rising, partial curve] | –
9 | COC(=O)c1ccc2nc(C3CCCCC3)c(Cc3cccc(F)c3)n2c1 | inconclusive: 29.1 µM [cytotoxic, single point] | –
10 | Cc1ccc(S(=O)(=O)NCC(=O)OCC(=O)N2CC(C)OC(C)C2)cc1 (centres undefined) | inconclusive: 25.9 µM [rising, single point] | –
11 | Cc1cccn2c(=O)nc(SCC(=O)N3N=C(c4cccs4)CC3c3ccc(F)cc3)nc12 (centres undefined) | inconclusive: 4.11 µM [cytotoxic, full curve] | –
12 | Cc1ccc(S(=O)(=O)NCC(=O)OC2CCOC2=O)cc1 (centres undefined) | inconclusive: 23.1 µM [rising, single point] | –
13 | COc1ccc(CCNC(=O)CCCn2c(=O)c3ccccc3n(CC(=O)Nc3ccccc3C)c2=O)cc1OC | inconclusive: 29.1 µM [rising, single point] | –
14 | CCN(CC)C(=O)Cn1cnc2sc(C)c(S(=O)(=O)N3CCC(C)CC3)c2c1=O | inconclusive: 18.4 µM [cytotoxic, single point] | –
15 | CC(C)C[C@H]1CN([C@@H](CC(C)C)CN2CCCC2CN2C(=S)NC[C@@H]2Cc2ccc(O)cc2)C(=S)N1CCc1ccccc1 (some centres undefined) | inconclusive: 20.6 µM [cytotoxic, single point] | –
16 | Cc1cc(C(=O)OCC(N)=O)c(C)n1-c1ccccc1 | – | inactive: -6.06%
17 | CN1c2ccccc2SC2C(c3ccccc3)=NOC21 (centres undefined) | inconclusive: 23.1 µM [cytotoxic, single point] | –
18 | C=CCn1c(=O)c(C(=O)Nc2ccccc2C)c(O)c2ccccc21 | inconclusive: 29.1 µM [cytotoxic, single point] | –
19 | Cc1nn(C)c(C)c1/C=N/NC(=O)CCn1nc(C)c([N+](=O)[O-])c1C | inconclusive: 18.4 µM [cytotoxic, partial curve, poor fit] | –
20 | COc1ccc(/C=C/c2ccnc3ccccc23)cc1OC | – | inactive: -2.31%
21 | CCC(=O)N1CCN(c2ccc(OC)cc2[N+](=O)[O-])CC1 | – | inactive: -0.175%
22 | COc1ccccc1NC(=O)CSc1nc(C)c2c(c1C#N)CCCC2 | active: 7.31 µM | –
23 | O=C(CN1CCN(S(=O)(=O)N2CCOCC2)CC1)Nc1cc(Cl)cc(Cl)c1 | inconclusive: 10.3 µM [cytotoxic, partial curve] | –

Row | Structure (SMILES) | Potency | activity change, negative = cytotoxicity
24 | COc1ccccc1CNc1nc(NCc2cccs2)nc2ccsc12 | – | inactive: -5.34%
25 | CC1CCN(S(=O)(=O)c2ccc3c(c2)N(CC(=O)NCCCOC(C)C)C(=O)CO3)CC1 | inconclusive: 16.4 µM [cytotoxic, single point] | –
26 | O=C(O)c1ccc(N=Nc2c(O)[nH]c3cc(Cl)ccc23)cc1 | inconclusive: 1.46 µM [rising, full curve] | –
27 | O=C(Cn1c(=O)oc2ccc(Cl)cc21)Nc1ccon1 | – | inactive: 13.1%
28 | CC1CCc2c(sc(NC(=O)COC(=O)c3ccc(O)cc3)c2C#N)C1 (centres undefined) | – | inactive: -3.18%
29 | CCCCOc1ccc(C(=O)NCC(=O)N2CCN(C(=O)c3ccco3)CC2)cc1 | – | inactive: -0.0029%
30 | CC(C)c1ccc(NC(=O)C2(C)Cc3c(-c4ccc(N(C)C)cc4)ccnc3O2)cc1 (centres undefined) | – | inactive: -9.32%
31 | O=[N+]([O-])c1nn(-c2ccc(Cl)cc2)n(O)c1=NCc1cccnc1 | inconclusive: 10.3 µM [cytotoxic, partial curve] | –
32 | CC1(C(=O)NCc2cccc3ccccc23)CCN1C(=O)C1(c2ccccc2)CCCC1 (centres undefined) | inconclusive: 16.4 µM [cytotoxic, partial curve] | –
33 | CC(=O)N1CCN(CC(O)COc2ccc(OCc3ccccc3)cc2)CC1 (centres undefined) | – | inactive: -13.8%
34 | COc1ccc(C(=O)N/N=C\c2ccc(OC)c(COc3ccccc3Br)c2)c(OC)c1 | active: 16.4 µM | –
35 | COc1cc2sc(-c3ccccc3OC)c(-c3ccc(OCCN4CCCCC4)cc3)c2cc1OC | inconclusive: 20.6 µM [cytotoxic, single point] | –
36 | COc1ccc(NC(=O)C2Cc3c(-c4ccc5c(c4)OCO5)ccnc3O2)cc1 (centres undefined) | inconclusive: 13 µM [cytotoxic, partial curve, poor fit] | –
37 | Cc1nc(N2CCN(C(=O)c3ccco3)CC2)c(C#N)c2c1CCCC2 | – | inactive: -78.4%
38 | O=C(CNc1ccccc1)N/N=C/c1c[nH]c2ccccc12 | inconclusive: 32.6 µM [cytotoxic, single point] | –
39 | O=C1COc2ccc(S(=O)(=O)N3CCc4ccccc43)cc2N1 | inconclusive: 10.3 µM [cytotoxic, partial curve] | –
40 | COc1ccc(C(=O)/C=C/Sc2nc3ccccc3o2)cc1 | inconclusive: 29.1 µM [cytotoxic, single point] | –
41 | Cc1cc(C)cc(NC(=S)NCCCO)c1 | – | inactive: -0.86%
42 | O=C(NCCCN1CCC(Cc2ccccc2)CC1)c1ccc2nc(N3CCOCC3)sc2c1 | inconclusive: 6.51 µM [cytotoxic, partial curve] | –
43 | Cc1ccccc1-n1nc2c(c1NC(=O)C(C)(C)C)CS(=O)(=O)C2 | – | inactive: 18.3%
44 | COc1ccccc1CNS(=O)(=O)c1ccc(Cl)s1 | – | inactive: -24.3%
45 | O=C(O)CN1CCN(Cc2ccc(Cl)cc2)C1=O | inconclusive: 20.6 µM [rising, single point] | –
46 | COc1ccc(CN2CCNC(=O)C2CC(=O)N(C)Cc2ccon2)cc1OC (centres undefined) | inconclusive: 29.1 µM [rising, single point] | –

Whole records from above. Values in the order: Potency	activity change, negative = cytotoxicity
`CC1(C(=O)NCc2cccc3ccccc23)CCN1C(=O)C1(c2ccccc2)CCCC1` (centres undefined) in the list: inconclusive: 16.4 µM [cytotoxic, partial curve]	–
`O=[N+]([O-])c1nn(-c2ccc(Cl)cc2)n(O)c1=NCc1cccnc1` in the list: inconclusive: 10.3 µM [cytotoxic, partial curve]	–
`O=C(O)c1ccc(N=Nc2c(O)[nH]c3cc(Cl)ccc23)cc1` in the list: inconclusive: 1.46 µM [rising, full curve]	–
`Cc1nc(N2CCN(C(=O)c3ccco3)CC2)c(C#N)c2c1CCCC2` in the list: –	inactive: -78.4%

Continuation:

Row | Structure (SMILES) | Potency | activity change, negative = cytotoxicity
47 | Cc1onc(-c2ccccc2)c1C(=O)Nc1ccc(Cl)cn1 | inconclusive: 20.6 µM [cytotoxic, single point] | –
48 | O=C(NCc1ccc2c(c1)OCO2)c1ccc(CS(=O)(=O)Cc2cccc(Cl)c2)o1 | inconclusive: 14.6 µM [cytotoxic, partial curve] | –
49 | COc1ccc(/C=N/N=C2/NC(=O)C(CC(=O)O)S2)cc1OCc1ccc(Cl)cc1Cl (centres undefined) | inconclusive: 29.1 µM [rising, single point] | –
50 | Cc1ccc(C(=O)N2CCN(S(=O)(=O)c3ccccc3)CC2)s1 | inconclusive: 29.1 µM [cytotoxic, single point] | –
51 | Cc1ccc(NC(=O)CN2C(=O)NC3(CCCCCCC3)C2=O)cc1C | active: 23.1 µM | –
52 | COc1ccc(CNc2nc3c(c(=O)[nH]c(=O)n3C)n2Cc2ccccc2C)cc1 | inconclusive: 13 µM [cytotoxic, partial curve] | –
53 | O=C(Nc1ccc2c(c1)CCC2)C1CCCN(c2ncccn2)C1 (centres undefined) | – | inactive: 6.1%
54 | Cc1ccc(C)c(N2CCN(CCN3CCCCC3)CC2)c1 | inconclusive: 1.46 µM [cytotoxic, full curve] | –
55 | O=S(=O)(Nc1cccc2ccccc12)N1CCCC1 | inconclusive: 29.1 µM [cytotoxic, partial curve, poor fit] | –
56 | O=C(NCc1ccccn1)c1ccc(Cl)c(S(=O)(=O)N2CCCCCC2)c1 | inconclusive: 5.17 µM [cytotoxic, partial curve] | –
57 | CCN(CC)c1ccc(/C=N/NC(=O)c2ccc3nc[nH]c3c2)cc1 | inconclusive: 16.4 µM [rising, single point] | –
58 | CC1(C)Cc2c(cnn2-c2ccccc2)-c2c1c1ccccc1n2CC(O)CCl (centres undefined) | inconclusive: 18.4 µM [cytotoxic, single point] | –
59 | CCc1ccc(C(=O)NCc2ccc(Cl)cc2Cl)cc1 | inconclusive: 29.1 µM [cytotoxic, single point] | –
60 | O=C1C(Cl)=C(NC2CCCCC2)C(=O)N1c1ccc(Cl)cc1 | inconclusive: 9.2 µM [rising, partial curve, poor fit] | –
61 | Cn1nnnc1NN=Cc1ccccc1 | active: 18.4 µM | –
62 | NC(=O)c1ccc(NC(=O)CN2CCN(C(=O)c3ccco3)CC2)cc1 | inconclusive: 29.1 µM [rising, single point] | –
63 | Cn1c(=O)c2cc(C(=O)NCCCN3CCN(c4ccc(F)cc4)CC3)sc2c2ccccc21 | – | inactive: -14.7%
64 | Cc1ccccc1CN1C(=O)c2ccccc2S(=O)c2ccc(C(=O)N3CCOCC3)cc21 (centres undefined) | – | inactive: -18.6%
65 | Cc1ccc(S(=O)(=O)N2CCC(C(=O)N3CCC[C@H]3C(=O)NCc3ccccc3)CC2)cc1 | inconclusive: 23.1 µM [cytotoxic, partial curve, poor fit] | –
66 | CC(C)CN(C(=O)CN(C)CC(=O)Nc1ccc(Cl)c(C(F)(F)F)c1)c1c(N)n(CC(C)C)c(=O)[nH]c1=O | – | inactive: -4.19%
67 | CCNC(=S)N=Nc1c(O)n(Cc2ccc(Cl)cc2)c2ccccc12 | inconclusive: 5.17 µM [cytotoxic, full curve] | –
68 | C=CCN(c1ccccc1)S(=O)(=O)c1cccc(C(=O)Nc2ccc(N3CCOCC3)cc2)c1 | inconclusive: 5.8 µM [cytotoxic, partial curve, poor fit] | –
69 | O=C(Nc1ccc(F)cc1F)c1ccc(-n2cccn2)nc1 | – | inactive: 0%
